From PMC6235404
These are yes or no findings as the source states them, for the method shown. For part of these data: Binding seen in cells or lysates may run through a third protein. Some binding calls cover weakened binding; strength is not graded here.

What was measured:
[1] = molecular target: T1, endogenous STING (mouse cells) (mouse (endogenous in MEFs and BMDMs)) (UniProt Q3TBT3); assay: co-IP
T1 sequence: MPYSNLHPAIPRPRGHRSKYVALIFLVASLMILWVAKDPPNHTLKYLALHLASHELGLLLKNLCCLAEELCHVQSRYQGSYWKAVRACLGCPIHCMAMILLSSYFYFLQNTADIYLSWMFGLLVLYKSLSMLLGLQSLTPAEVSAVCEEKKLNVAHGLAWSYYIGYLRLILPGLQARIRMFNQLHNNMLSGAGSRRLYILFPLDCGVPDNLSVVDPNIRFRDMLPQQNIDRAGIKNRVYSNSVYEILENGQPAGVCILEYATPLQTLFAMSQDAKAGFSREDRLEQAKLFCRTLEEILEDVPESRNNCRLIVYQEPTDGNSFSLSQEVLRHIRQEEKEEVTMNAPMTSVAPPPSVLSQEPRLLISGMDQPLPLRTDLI

[2] = molecular target: T2, endogenous IRF3 (BMDMs) (mouse (endogenous in BMDMs)), P70671; assay: native gel or EMSA; conditions: remark: other sources report otherwise
T2 chain: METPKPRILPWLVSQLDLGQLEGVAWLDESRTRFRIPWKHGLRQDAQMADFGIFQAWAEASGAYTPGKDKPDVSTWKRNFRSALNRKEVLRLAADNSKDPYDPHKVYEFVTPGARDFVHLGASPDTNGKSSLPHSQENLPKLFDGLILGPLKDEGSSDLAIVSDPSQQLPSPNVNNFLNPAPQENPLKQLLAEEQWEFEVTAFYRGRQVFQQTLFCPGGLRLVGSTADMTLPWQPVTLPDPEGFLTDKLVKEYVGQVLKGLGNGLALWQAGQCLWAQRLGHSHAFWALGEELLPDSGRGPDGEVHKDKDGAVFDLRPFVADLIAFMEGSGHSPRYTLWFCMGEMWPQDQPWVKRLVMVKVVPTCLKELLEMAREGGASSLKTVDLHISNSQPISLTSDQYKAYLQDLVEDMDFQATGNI

[3] = molecular target: endogenous IRF3 (BMDMs) (mouse (endogenous in BMDMs)) (UniProt P70671); assay: native gel or EMSA; native PAGE of extracts of Cyld-/- BMDMs after cGAMP (1 μg per well); IRF3 dimerization

B1: endogenous CYLD (MEFs) (enzyme, UniProt Q80TQ2 1-952)
chain: MSSGLWSQEKVTSPYWEERIFYLLLQECSVTDKQTQKLLKVPKGSIGQYIQDRSVGHSRVPSTKGKKNQIGLKILEQPHAVLFVDEKDVVEINEKFTELLLAITNCEERLSLFRNRLRLSKGLQVDVGSPVKVQLRSGEEKFPGVVRFRGPLLAERTVSGIFFGVELLEEGRGQGFTDGVYQGKQLFQCDEDCGVFVALDKLELIEDDDNGLESDFAGPGDTMQVEPPPLEINSRVSLKVGESTESGTVIFCDVLPGKESLGYFVGVDMDNPIGNWDGRFDGVQLCSFASVESTILLHINDIIPDSVTQERRPPKLAFMSRGVGDKGSSSHNKPKVTGSTSDPGSRNRSELFYTLNGSSVDSQQSKSKNPWYIDEVAEDPAKSLTEMSSDFGHSSPPPQPPSMNSLSSENRFHSLPFSLTKMPNTNGSMAHSPLSLSVQSVMGELNSTPVQESPPLPISSGNAHGLEVGSLAEVKENPPFYGVIRWIGQPPGLSDVLAGLELEDECAGCTDGTFRGTRYFTCALKKALFVKLKSCRPDSRFASLQPVSNQIERCNSLAFGGYLSEVVEENTPPKMEKEGLEIMIGKKKGIQGHYNSCYLDSTLFCLFAFSSALDTVLLRPKEKNDIEYYSETQELLRTEIVNPLRIYGYVCATKIMKLRKILEKVEAASGFTSEEKDPEEFLNILFHDILRVEPLLKIRSAGQKVQDCNFYQIFMEKNEKVGVPTIQQLLEWSFINSNLKFAEAPSCLIIQMPRFGKDFKLFKKIFPSLELNITDLLEDTPRQCRICGGLAMYECRECYDDPDISAGKIKQFCKTCSTQVHLHPRRLNHSYHPVSLPKDLPDWDWRHGCIPCQKMELFAVLCIETSHYVAFVKYGKDDSAWLFFDSMADRDGGQNGFNIPQVTPCPEVGEYLKMSLEDLHSLDSRRIQGCARRLLCDAYMCMYQSPTMSLYK
- binding [1]: binds

B2: endogenous IRF3 (BMDMs), P70671 1-419 (protein)
chain: METPKPRILPWLVSQLDLGQLEGVAWLDESRTRFRIPWKHGLRQDAQMADFGIFQAWAEASGAYTPGKDKPDVSTWKRNFRSALNRKEVLRLAADNSKDPYDPHKVYEFVTPGARDFVHLGASPDTNGKSSLPHSQENLPKLFDGLILGPLKDEGSSDLAIVSDPSQQLPSPNVNNFLNPAPQENPLKQLLAEEQWEFEVTAFYRGRQVFQQTLFCPGGLRLVGSTADMTLPWQPVTLPDPEGFLTDKLVKEYVGQVLKGLGNGLALWQAGQCLWAQRLGHSHAFWALGEELLPDSGRGPDGEVHKDKDGAVFDLRPFVADLIAFMEGSGHSPRYTLWFCMGEMWPQDQPWVKRLVMVKVVPTCLKELLEMAREGGASSLKTVDLHISNSQPISLTSDQYKAYLQDLVEDMDFQATGNI
- binding [2]: binds

B3: endogenous IRF3 (BMDMs) (protein, UniProt P70671 1-419)
chain: METPKPRILPWLVSQLDLGQLEGVAWLDESRTRFRIPWKHGLRQDAQMADFGIFQAWAEASGAYTPGKDKPDVSTWKRNFRSALNRKEVLRLAADNSKDPYDPHKVYEFVTPGARDFVHLGASPDTNGKSSLPHSQENLPKLFDGLILGPLKDEGSSDLAIVSDPSQQLPSPNVNNFLNPAPQENPLKQLLAEEQWEFEVTAFYRGRQVFQQTLFCPGGLRLVGSTADMTLPWQPVTLPDPEGFLTDKLVKEYVGQVLKGLGNGLALWQAGQCLWAQRLGHSHAFWALGEELLPDSGRGPDGEVHKDKDGAVFDLRPFVADLIAFMEGSGHSPRYTLWFCMGEMWPQDQPWVKRLVMVKVVPTCLKELLEMAREGGASSLKTVDLHISNSQPISLTSDQYKAYLQDLVEDMDFQATGNI
- binding [3]: binds weakly
